This experiment can be described thus: qHTS Assay for Lipid Storage Modulators in Drosophila S3 Cells.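 For cell number change: cells counted by Cell Tracker Red CMTPX staining in the red channel.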 The settings on record: BODIPY lipid droplet fluorescence, 18-24 h; for cell number change: measured here: cell count max response, cells fed with added oleic acid. A digest of the protocol:
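Drosophila S3 cells got compounds at several concentrations plus oleic acid (400 uM solution). Laser-scanning cytometry with 488 nm excitation read lipid droplets at 500-530 nm and cells at 575-640 nm. Percent activity was relative to 20 uM Triacsin C.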
(In general: Quantitative high-throughput screening tests each substance at several concentrations.)

Setting [1] is: measured here: cell number channel AC50, cells fed with added oleic acid.
[2] abbreviates: measured here: lipid fluorescence (Fed channel) AC50, cells fed with added oleic acid.

Several values for one entry are separate records, joined by “and”; a condition that tells them apart may be missing. Equal values may be shown once. Some of the results follow. Shown are side measurements of this screen, not its main read-out; they come without a call. Most of these compounds were active or inconclusive in the main read-out, so they are no random draw. Potencies come from curve fits of mixed quality, noted in brackets.

As to `CCN1C(=NCCc2c[nH]c3ccccc23)N[C@@H](c2ccccc2)C(C(=O)OC)=C1C`, the cell number change is -12.9% and 8.14%. For the same molecule, under setting [1], the AC50 (commonly the concentration at which the activity in the assay is half-maximal) was 0.326 µM [rising, full curve, poor fit].

As to `O=C(NC(=O)c1ccccc1)Nc1ccc(Cl)cn1`, the cell number change was -33.7%. In addition, the AC50 under setting [1] was 29.1 µM [falling, single point]. For the molecule `O=C(COc1ccc([N+](=O)[O-])cc1)NN=C1CCCC1`, the cell number change stood at 25.3%. Also, under setting [2], the half-maximal activity concentration (AC50) was 29.1 µM [falling, single point]. For `COCCCN1C(=O)C(=O)/C(=C(/O)c2ccc3c(c2)CC(C)O3)C1c1cccnc1` (stereo not drawn), the cell number change was -9.76%. With `CCN1C(=O)[C@H]2[C@@H](c3ccc(-c4ccc(C(C)=O)cc4)c(OC)c3)N[C@@](Cc3ccccc3)(C(=O)OC)[C@H]2C1=O`, the cell number change is -35.5%. For the same molecule, the half-maximal activity concentration (AC50) under setting [1] was 10.3 µM [falling, partial curve, poor fit]. With `N#Cc1nc(Cc2cccc3ccccc23)oc1N1CCC(C(N)=O)CC1`, the cell number change is -14.2%. Under setting [1], the half-maximal activity concentration (AC50) was 6.51 µM [falling, single point]. In the case of `NC(=O)CN1C(=O)/C(=c2\sc3nc(=O)c(Cc4ccccc4)nn3c2=O)c2ccccc21`, the cell number change amounted to 13.2%. In addition, the AC50 under setting [2] was 0.92 µM [falling, full curve]. `COc1cccc(N2CCN(c3ccc4nnc(CCC(=O)N5CCC(C)CC5)n4n3)CC2)c1`: the cell number change worked out at 32.1%. Besides, the concentration at half-maximal activity (AC50) under setting [1] is 18.4 µM [rising, single point]. Besides, the half-maximal activity concentration (AC50) under setting [2] is 2.06 µM [falling, partial curve].

For `COc1ccc(C(=O)Nc2nc(CC(=O)NCc3ccc(F)cc3)cs2)cc1`, the cell number change was -50%. For the same molecule, the AC50 under setting [1] is 0.82 µM [falling, full curve, poor fit]. In addition, the half-maximal activity concentration (AC50) under setting [2] is 20.6 µM [falling, partial curve, poor fit].

With `CCN(c1ccccc1)S(=O)(=O)c1cc(C(=O)NCc2ccccn2)ccc1C`, the cell number change turned out to be 16.5%. The AC50 under setting [2] is 3.26 µM [rising, partial curve]. In the case of `Cn1cccc1-c1cc(C(=O)N/N=C/c2cc(Br)ccc2O)[nH]n1`, the cell number change amounted to 10.4%. For `COc1ccc(CN2CCN(Cc3csc(C(C)=O)c3)CC2CCO)c(C)c1C` (stereo not drawn), the cell number change is -2.74%. For the same molecule, the AC50 under setting [2] is 29.1 µM [rising, single point]. For `CCCCn1c(N)c(N(CCOC)C(=O)c2oc3ccc(OCC)cc3c2C)c(=O)[nH]c1=O`, the cell number change was determined as 8.43%. Under setting [2], the AC50 was 18.4 µM [rising, single point]. With `CCOc1ccc2oc(-c3ccccc3)c(C(N)=O)c2c1`, the cell number change is -0.874%. Further, under setting [2], the AC50 is 0.0116 µM [rising, full curve, poor fit]. For the molecule `CCN(CC)S(=O)(=O)c1ccc(/C=C/C(=O)OCC#N)cc1`, the cell number change stood at 20.7%. For the same molecule, under setting [2], the half-maximal activity concentration (AC50) was 0.651 µM [falling, full curve]. As for `Cc1ccccc1C(=O)NNC(=O)CSc1nnc(C)n1-c1ccccc1`, the cell number change is -19.6%. For the same molecule, under setting [2], the half-maximal activity concentration (AC50) is 0.82 µM [falling, full curve, poor fit]. `CCCCC(=O)Nc1cccc(C(=O)Nc2ccccc2C(=O)O)c1`: the cell number change is 8.35%. For the same molecule, the AC50 under setting [2] was 0.92 µM [falling, full curve].

Regarding `CCCCCCn1c(CN2CCN(Cc3ccccc3)CC2)nc2c1c(=O)n(C)c(=O)n2C`, the AC50 under setting [1] was 3.26 µM [rising, partial curve].

In the case of `CCOC(=O)c1ccc(N2C(=O)C3C(/C=C/c4ccccc4)OC4(C(=O)c5ccccc5C4=O)C3C2=O)cc1` (stereo not drawn), the cell number change worked out at 11.6%. Moreover, the AC50 under setting [2] is 8.2 µM [rising, partial curve, poor fit]. As to `C=CCn1c(SCC)nc(O)cc1=O`, the cell number change is -26.4%. For the same molecule, the AC50 under setting [1] was 0.411 µM [falling, partial curve, poor fit]. Further, the AC50 under setting [2] was 29.1 µM [falling, single point]. `CCN1CCN(c2oc(/C=C/c3ccccc3)nc2C#N)CC1`: the AC50 under setting [2] is 5.8 µM [rising, single point].

Consider `Cc1ccc(S(=O)(=O)N/N=C/c2ccc(OS(=O)(=O)c3ccc(C)c([N+](=O)[O-])c3)cc2)cc1`, for which the cell number change was 39.7%. Moreover, the AC50 under setting [1] is 4.11 µM [rising, single point].

In the case of `CSCCC(NS(=O)(=O)c1ccc2c(c1)OCCO2)C(=O)N(C)Cc1ccc(C)cc1` (stereo not drawn), the cell number change was -44.9%. Further, the AC50 under setting [1] was 1.84 µM [falling, full curve]. Further, the AC50 under setting [2] was 1.64 µM [falling, full curve]. Consider `CC(=O)Nc1c(-c2ccc(F)cc2)nc2ccccn12`, for which the cell number change amounted to 6.02%. In addition, the half-maximal activity concentration (AC50) under setting [1] is 0.103 µM [falling, single point]. The concentration at half-maximal activity (AC50) under setting [2] is 0.146 µM [falling, single point]. In the case of `COc1ccc(C)cc1S(=O)(=O)N(C)CC(=O)NC1CC1`, the cell number change came out at 1.4%. Moreover, under setting [2], the half-maximal activity concentration (AC50) was 29.1 µM [rising, single point]. Turning to `COc1ccc(CS(=O)c2nc(C)cc(C)c2S(C)(=O)=O)cc1` (stereo not drawn), the cell number change came out at 73.3%. Further, the AC50 under setting [1] is 5.8 µM [falling, single point].

Regarding `COc1ccc(/C=C2/C(=O)OCc3cc(OC)c(OC)cc32)cc1`, the cell number change came to 0.497%. The concentration at half-maximal activity (AC50) under setting [2] is 9.2 µM [rising, partial curve].

For `CC(C)OC(=O)CSc1nnc(-c2ccc(Cl)cc2)n1N`, the cell number change was -50.5%. Further, under setting [1], the concentration at half-maximal activity (AC50) is 29.1 µM [falling, single point]. `S=C(NCc1ccccc1)N1CCn2cccc2C1c1cccnc1` (stereo not drawn): the cell number change is 6.4%. Further, under setting [2], the AC50 is 0.164 µM [rising, full curve, poor fit]. As to `c1ccc2c(c1)[nH]c1ccncc12`, the cell number change was 18.3%. Besides, the AC50 under setting [2] was 8.2 µM [rising, partial curve, poor fit]. With `COc1ccc(N2CCN(CCNC(=O)C3CCN(S(=O)(=O)c4cccs4)CC3)CC2)cc1`, the AC50 under setting [2] was 16.4 µM [rising, partial curve]. Take `COc1cc(C(C)=O)ccc1OCC(O)Cn1nc(C)c(Br)c1C` (stereo not drawn): the cell number change is 16.5%. For the same molecule, the AC50 under setting [2] is 29.1 µM [falling, single point]. For `O=c1cc[nH]c2cc(Cl)ccc12`, the cell number change worked out at 5.53%. Moreover, under setting [2], the half-maximal activity concentration (AC50) is 18.4 µM [rising, single point].

For the molecule `CC1CCN(C(=O)COC(=O)COc2ccccc2C#N)CC1`, the cell number change is -8.2%. The AC50 under setting [2] is 6.51 µM [falling, single point].

On to `O=C(NCc1cccc(Cl)c1)c1ccc2c(c1)OCCO2`, for which the cell number change is -19.1%. Take `O=C(O)[C@@H]1CCCN1S(=O)(=O)c1cccc2cccnc12`: the cell number change was -3.28%. Also, under setting [2], the AC50 is 3.26 µM [rising, partial curve]. As to `O=C(NNC(=O)c1ccncc1)Nc1ccc([N+](=O)[O-])cc1`, the cell number change came to 6.74%. On to `CCN1CCc2c(sc(NC(=O)c3ccc(S(=O)(=O)N4CCCC4)cc3)c2C(=O)NC)C1`, for which the cell number change is -62.1%. Also, the half-maximal activity concentration (AC50) under setting [1] was 5.17 µM [falling, partial curve]. Under setting [2], the AC50 was 6.51 µM [falling, partial curve].

`Cc1cc(=O)oc2c3c(cc(OCC(=O)NCCC(=O)O)c12)OC(C)(C)CC3`: the cell number change was -1.42%.

Consider `C[C@@H]1O[C@@H](O[C@@H]2C(=O)c3c(O)cc(O)cc3O[C@H]2c2ccc(O)c(O)c2)[C@H](O)[C@H](O)[C@H]1O`, for which the cell number change was 12.3%. The half-maximal activity concentration (AC50) under setting [2] is 6.51 µM [rising, single point]. With `CC(C)c1nc(-c2ccccn2)no1`, the cell number change is 5.06%. The AC50 under setting [2] was 0.13 µM [falling, single point]. Take `CCCN(Cc1cc2cc(C)ccc2[nH]c1=O)S(C)(=O)=O`: the cell number change came out at 43.8%. In addition, under setting [1], the concentration at half-maximal activity (AC50) was 0.58 µM [rising, full curve]. Under setting [2], the concentration at half-maximal activity (AC50) was 20.6 µM [rising, single point]. Take `CC(=O)c1cn(Cc2ccccc2)c(=O)[nH]c1=O`: the cell number change was -20.9%. The half-maximal activity concentration (AC50) under setting [2] was 0.231 µM [falling, full curve].

Regarding `Cc1nonc1N1CCN(Cc2cn[nH]c2-c2ccc(F)cc2F)CC1`, the cell number change amounted to 17.9%. As to `C/C(Cl)=C\Cn1c(NCCc2ccccc2)nc2c1c(=O)n(C)c(=O)n2C`, the AC50 under setting [2] is 4.61 µM [falling, full curve].

`Cc1onc(-c2ccccc2)c1C(=O)Nc1nc(-c2ccc(F)c(F)c2)cs1`: the cell number change was -10.6%. On to `O=C(O)CCCCNS(=O)(=O)c1ccc(Cl)c(C(F)(F)F)c1`, for which the cell number change is 4.8%. Further, the AC50 under setting [2] was 13 µM [falling, partial curve].

In the case of `Cc1ccc(C)c(-n2c(SCC(=O)N3CCC(C(=O)O)CC3)nnc2-c2cccc(Cl)c2)c1`, the cell number change was -21.8%. Besides, under setting [1], the AC50 is 0.259 µM [falling, full curve, poor fit]. Further, the half-maximal activity concentration (AC50) under setting [2] was 0.517 µM [falling, full curve].

For `CC(NCC(=O)Nc1ccccc1C(=O)NC1CC1)c1ccc(S(N)(=O)=O)cc1` (stereo not drawn), the cell number change worked out at 15.5%. For the same molecule, under setting [2], the concentration at half-maximal activity (AC50) was 0.82 µM [rising, full curve]. For `COC(=O)C1=C(C)NC2=C(C(=O)CCC2)C1c1cn(Cc2ccc(Cl)cc2Cl)nc1-c1ccccc1` (stereo not drawn), the cell number change was -36.9%. Also, under setting [1], the AC50 was 1.64 µM [falling, partial curve].

For the molecule `COc1cc(/C=C/C(=O)N2CCc3ccccc3C2)cc(OC)c1OC`, the cell number change is -17.3%.

With `CC(=O)Nc1sc(C)c(C)c1C(=O)OCC(=O)Nc1cc(S(=O)(=O)N2CCCCC2)ccc1Cl`, the cell number change was 13.2%. For the same molecule, the AC50 under setting [2] is 6.51 µM [rising, single point].

`O=C(c1cccc2ccccc12)N1CCN(c2ccccc2F)CC1`: the cell number change is 4.23%. The half-maximal activity concentration (AC50) under setting [1] is 2.59 µM [rising, partial curve]. Take `CCOC(=O)/C=c1\s/c(=C\c2ccc3c(c2)OCCO3)c(=O)n1CC(=O)NCC1CCCO1` (stereo not drawn): the half-maximal activity concentration (AC50) under setting [1] was 3.26 µM [rising, partial curve] and the AC50 under setting [2] is 18.4 µM [rising, partial curve]. As to `N#Cc1ccc(-c2ccc(OCC(O)Cn3nnc4ccccc43)cc2)cc1` (stereo not drawn), the cell number change was 2.03%. Further, the AC50 under setting [2] was 29.1 µM [falling, single point]. In the case of `COc1ccc(N2C(=O)CC(C)(C)CC2=O)cc1OC`, the cell number change came to 23.6%. Moreover, the concentration at half-maximal activity (AC50) under setting [2] is 11.6 µM [falling, single point]. Consider `CN(c1ccccc1)c1ccc(/C=C(\CCC(=O)O)c2nc3ccccc3s2)cc1[N+](=O)[O-]`, for which the AC50 was 0.58 µM [falling, single point] under setting [1] and 16.4 µM [rising, partial curve] under setting [2].

For `COc1c(OC(C)=O)ccc(/C=C/c2ccc3cccc(OC)c3n2)c1[N+](=O)[O-]`, the cell number change was -40%. Further, the AC50 under setting [1] is 18.4 µM [falling, partial curve]. Moreover, the AC50 under setting [2] is 18.4 µM [falling, single point].

The record behind these values is PubChem BioAssay AID2685 (National Center for Advancing Translational Sciences (NCATS), 2010).
